# Reference: patent publication US10060892B2, “Tripodal nitrate receptor” (University of Oregon, priority 2013, dated 2018)
# Experiments:
# Format in all cases: binding
# [1] = 1H NMR titration with TBA chloride in 10% DMSO-d6/CDCl3; details: Cl^−; for Δδ(H^c): nitrophenyl proton H^c; for Δδ(H^d): nitrophenyl proton H^d; for Δδ(H^a): urea proton H^a; for Δδ(H^b): urea proton H^b
# [2] = 1H NMR titration with TBA iodide in 10% DMSO-d6/CDCl3; details: I^−
# Source text: (§1) To simplify the mode of binding in these receptors, as well as to lower the association constant of nitrate and bromide to a measurable amount, other solvent systems were investigated. Low solubility of the tripodal receptors limited the solvent possibilities. We also aimed to maintain competition between binding of the anion and solvent molecules to provide further evidence for the strong binding of nitrate in competitive solvents, a critical feature for applications in environmental monitoring. […] In addition, DMSO is a strong hydrogen bond acceptor, thus a lower association constant would be expected. Initial upfield shifts, followed by downfield shifts of the urea protons were observed upon the addition of TBANO3 1 mM solutions of 1 in 2% DMSO-d6/CDCl3 and 5% DMSO-d6/CDCl3. The titration curves indicate a more complicated system than a 1:1 model; however, the data still could not be fit to a standard model. Raising the DMSO concentration to 10% DMSO-d6/CDCl3 decreased the overall change in chemical shift of the urea protons (FIG. 3), but a smooth binding curve is observed, indicating self-aggregation (and likely ion-pairing) is no longer occurring. As suspected, titrations of TBA salts of nitrate, bromide, chloride, and iodide fit to a 1:1 model when performed in 10% DMSO-d6/CDCl3 (Table 1).
# (§2) Titrations in 10% DMSO-d6/CDCl3 were performed at a constant 1 mM concentration of 1. The change in chemical shift was monitored throughout the titration and fit to a 1:1 model using linear regression analysis. […] The binding constants of each anion investigated and the calculated total Δδ values based on the determined constant are presented in Table 2. The largest changes in chemical shift for each anion are observed in the urea protons of 1, H^a and H^b.
# [3] = 1H NMR titration with TBA bromide in 10% DMSO-d6/CDCl3; details: Br^−
# Source text: as §1, §2
# [4] = 1H NMR titration with TBA nitrate in 10% DMSO-d6/CDCl3; details: NO3^−; for Δδ(H^c): nitrophenyl proton H^c; for Δδ(H^d): nitrophenyl proton H^d; for Δδ(H^a): urea proton H^a; for Δδ(H^b): urea proton H^b
# Source text: as §1, §2
# Similar to 1, host:guest complexes of 2 were investigated through 1H NMR spectroscopy titrations in 10% DMSO-d6/CDCl3. Titrations were performed at approximately 1 mM 2 with TBA salts of Cl^− and NO3^−. The urea protons (H^a and H^b), nitrophenyl protons (H^c and H^d), and core proton (H^core) were monitored throughout the titrations. For consistency, only H^a, H^b, H^c, and H^d were used to fit the data to a 1:1 model, as was done with 1. All changes in chemical shift began to level off near 1 equiv. of anion and are presented in Table 1 with the association constants corresponding to NO3^− and Cl^−. The values reported for H^a, H^b, H^c, and H^d are averages derived from the individual association constants of each titration, while the values for H^core are averaged from the observed changes during the titration. Replacing the fluorine atoms with hydrogens changes not only the electronics, but also the number of hydrogen bond donors. […] The large increase in Ka for Cl^− can be attributed to the addition of a hydrogen bond with H^core, assigned from the titration of 2 (FIG. 4a). […] The association constant for NO3^− with 2 trends with the noted correlation and indicates 2 may bind NO3^− by a similar mode as 1, but binds Cl^− through a different mode. More importantly, no significant shift of H^core occurs upon the addition of nitrate to 2 (FIG. 4b), thus there is no hydrogen bonding of the anion to H^core, indicating an anion-π interaction may still be the preferred mode of binding in spite of the more electron-rich arene. Three important results stem from the investigation of 2: nitrate selectivity is lost, the association constant of nitrate is diminished, and nitrate binds via a different mode than chloride.
Structure (SMILES),Δδ(H^c) [1],Δδ(H^d) [1],Δδ(H^a) [1],Δδ(H^b) [1],Δδ(H^c) ([2]; nitrophenyl proton H^c),Δδ(H^d) ([2]; nitrophenyl proton H^d),Δδ(H^a) ([2]; urea proton H^a),Δδ(H^b) ([2]; urea proton H^b),Δδ(H^c) ([3]; nitrophenyl proton H^c),Δδ(H^d) ([3]; nitrophenyl proton H^d),Δδ(H^a) ([3]; urea proton H^a),Δδ(H^b) ([3]; urea proton H^b),Δδ(H^c) [4],Δδ(H^d) [4],Δδ(H^a) [4],Δδ(H^b) [4],Δδ(H^conc) ([1]; core proton),Δδ(H^conc) ([4]; core proton)
CC(C)(C)c1ccc(NC(=O)Nc2ccc([N+](=O)[O-])cc2)c(C#Cc2c(F)c(C#Cc3cc(C(C)(C)C)ccc3NC(=O)Nc3ccc([N+](=O)[O-])cc3)c(F)c(C#Cc3cc(C(C)(C)C)ccc3NC(=O)Nc3ccc([N+](=O)[O-])cc3)c2F)c1 [compound 1],0.17 ppm,−0.15 ppm,0.21 ppm,0.99 ppm,0.16 ppm,−0.07 ppm,0.12 ppm,0.29 ppm,0.17 ppm,−0.11 ppm,0.16 ppm,0.62 ppm,0.10 ppm,−0.10 ppm,0.26 ppm,0.39 ppm,,
CC(C)(C)c1ccc(NC(=O)Nc2ccc([N+](=O)[O-])cc2)c(C#Cc2cc(C#Cc3cc(C(C)(C)C)ccc3NC(=O)Nc3ccc([N+](=O)[O-])cc3)cc(C#Cc3cc(C(C)(C)C)ccc3NC(=O)Nc3ccc([N+](=O)[O-])cc3)c2)c1 [compound 2],0.21 ppm,−0.07 ppm,0.12 ppm,0.97 ppm,,,,,,,,,0.12 ppm,−0.06 ppm,0.19 ppm,0.27 ppm,0.31 ppm,<0.01 ppm
